This is an account of results in article PMC4772809, “Network of protein interactions within the Drosophila inner kinetochore” (Open Biology, 2016).

No constants are given. Whether binding was seen depends on the method and setting. Binding seen in cells or lysates may run through a third protein. A yes stands for co-enrichment or nearness to the bait. Other partners may have been found. No binding means not detected with the bait. Tags and fused reporters may be left off the sequences shown.

Experiment [1] addresses T1, GFP-tagged CENP-C^(1–94: F26A,F29A) (Drosophila melanogaster) (UniProt Q9VHP9).
T1 sequence: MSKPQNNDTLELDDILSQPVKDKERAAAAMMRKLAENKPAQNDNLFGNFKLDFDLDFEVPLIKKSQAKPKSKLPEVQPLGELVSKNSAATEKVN
Put plainly: affinity purification with mass spectrometry; GFP-tagged bait expressed in D.mel-2 cells; lysate (10 mM Tris pH 7.5, 200 mM NaCl, 0.5 mM EGTA, 0.5% NP-40, 1 mM DTT, 5% glycerol, DNase I) on GFP-Trap agarose 2 h 4 °C; endogenous preys identified by MS.

The target of experiment [2] is T2, GFP-tagged full-length CENP-C^F26A,F29A (Drosophila melanogaster) (UniProt Q9VHP9).
T2 sequence: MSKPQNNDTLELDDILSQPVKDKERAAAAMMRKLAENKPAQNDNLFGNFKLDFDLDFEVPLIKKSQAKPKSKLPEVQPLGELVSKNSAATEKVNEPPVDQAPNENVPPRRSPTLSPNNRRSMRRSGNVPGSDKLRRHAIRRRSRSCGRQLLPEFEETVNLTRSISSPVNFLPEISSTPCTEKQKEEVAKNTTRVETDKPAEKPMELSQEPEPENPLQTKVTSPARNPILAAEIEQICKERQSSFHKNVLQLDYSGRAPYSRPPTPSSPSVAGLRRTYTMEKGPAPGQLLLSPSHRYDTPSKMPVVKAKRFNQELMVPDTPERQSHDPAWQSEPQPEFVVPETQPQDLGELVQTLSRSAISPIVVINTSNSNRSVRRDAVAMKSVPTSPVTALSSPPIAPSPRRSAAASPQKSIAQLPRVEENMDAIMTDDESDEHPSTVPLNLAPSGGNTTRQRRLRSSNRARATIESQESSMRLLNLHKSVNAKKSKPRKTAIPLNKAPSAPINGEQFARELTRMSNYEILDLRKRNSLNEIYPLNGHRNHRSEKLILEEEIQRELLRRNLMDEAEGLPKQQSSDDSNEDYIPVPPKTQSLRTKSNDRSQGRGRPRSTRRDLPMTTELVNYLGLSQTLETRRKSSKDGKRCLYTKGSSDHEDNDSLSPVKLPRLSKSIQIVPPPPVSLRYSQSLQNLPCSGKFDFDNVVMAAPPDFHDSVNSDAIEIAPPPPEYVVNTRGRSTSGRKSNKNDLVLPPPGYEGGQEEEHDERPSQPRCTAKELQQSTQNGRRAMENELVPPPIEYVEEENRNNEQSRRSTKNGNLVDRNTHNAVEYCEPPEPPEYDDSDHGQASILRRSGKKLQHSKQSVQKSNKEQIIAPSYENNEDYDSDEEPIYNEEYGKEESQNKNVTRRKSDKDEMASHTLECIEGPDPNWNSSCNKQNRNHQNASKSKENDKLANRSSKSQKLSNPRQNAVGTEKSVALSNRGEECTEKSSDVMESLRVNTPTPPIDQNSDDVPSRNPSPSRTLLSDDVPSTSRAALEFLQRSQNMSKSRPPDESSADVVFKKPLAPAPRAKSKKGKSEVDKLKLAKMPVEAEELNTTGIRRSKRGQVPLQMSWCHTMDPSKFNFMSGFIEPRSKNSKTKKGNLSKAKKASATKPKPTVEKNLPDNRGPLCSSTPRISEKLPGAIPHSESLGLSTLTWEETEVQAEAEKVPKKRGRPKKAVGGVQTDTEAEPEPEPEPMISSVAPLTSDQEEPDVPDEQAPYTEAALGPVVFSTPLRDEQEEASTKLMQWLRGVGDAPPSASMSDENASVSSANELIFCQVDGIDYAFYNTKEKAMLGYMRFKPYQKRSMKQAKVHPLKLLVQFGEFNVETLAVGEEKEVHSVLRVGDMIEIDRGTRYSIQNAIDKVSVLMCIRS
Described as above.

As to Nnf1a (endogenous, D.mel-2 cells), the binding entry in experiment [1] and in experiment [2] was “no binding” throughout.
